In patent publication US11135246B2, “Peptides and combination of peptides for use in immunotherapy against leukemias and other cancers” (Immatics Biotechnologies GmbH, priority 2017, dated 2021):

System: HLA molecules of primary tumor samples
Assay: Identification of tumor associated peptides presented on the cell surface (HLA immune precipitation, LC-MS)
Set-up: species or system human
Settings: for Peptide Presentation on cancer entities: entities on which the peptide was presented, CLL = chronic lymphocytic leukemia, AML = acute myeloid leukemia, CML = Chronic myeloid leukemia; for Peptide Presentation on tumor types: tumor entities on which the peptide was found presented (Table 8b)

| Substance | Peptide Presentation on cancer entities | Peptide Presentation on tumor types |
| --- | --- | --- |
| 97 (LPFGKIPIL; listed as Homo sapiens) [compound 97] | AML, CML | BRCA, CRC, GBC, GBM, GC, HCC, HNSCC, MEL, NHL, NSCLCadeno, NSCLCother, NSCLCsquam, OC, OSCAR, PACA, PRCA, RCC, SCLC, UBC, UEC |
| 98 (YPIALTRAEM; listed as Homo sapiens) [compound 98] | CLL | BRCA, CCC, GBC, GC, HNSCC, MEL, NHL, NSCLCadeno, NSCLCother, NSCLCsquam, OC, OSCAR, PACA, PRCA, RCC, SCLC, UEC |
| 99 (SPRAINNLVL; listed as Homo sapiens) [compound 99] | CLL | NHL |
| 100 (YPYQERVFL; listed as Homo sapiens) [compound 100] | CML | NHL, NSCLCadeno, NSCLCsquam |
| 101 (NPRYPNYMF; listed as Homo sapiens) [compound 101] | CLL | NHL |
| 102 (LPLSMEAKI; listed as Homo sapiens) [compound 102] | CML | – |
| 103 (IPANTEKASF; listed as Homo sapiens) [compound 103] | CLL | – |
| 104 (RPMTPTQIGPSL; listed as Homo sapiens) [compound 104] | CLL | NHL |
| 105 (NPLTKLLAI; listed as Homo sapiens) [compound 105] | AML | CCC, MEL, NHL, NSCLCadeno, NSCLCother, NSCLCsquam, OC |
| 106 (KAFKWFSAL; listed as Homo sapiens) [compound 106] | CLL | NHL |
| 107 (QAAQRTAL; listed as Homo sapiens) [compound 107] | CLL | – |
| 108 (ILAIRQNAL; listed as Homo sapiens) [compound 108] | CLL | CCC, NHL, OC |
| 109 (LGHVRYVL; listed as Homo sapiens) [compound 109] | CLL | CCC, GBM, NHL, UBC |
| 110 (FGLARIYSF; listed as Homo sapiens) [compound 110] | AML, CML | BRCA, CCC, GBC, GC, HCC, HNSCC, MEL, NHL, NSCLCadeno, NSCLCother, NSCLCsquam, OC, OSCAR, PACA, PRCA, RCC, SCLC, UBC, UEC |
| 111 (VTLIKYQEL; listed as Homo sapiens) [compound 111] | CLL | – |
| 112 (APLLRHWEL; listed as Homo sapiens) [compound 112] | CLL | BRCA, CCC, CRC, GBC, HCC, HNSCC, NHL, NSCLCadeno, NSCLCother, NSCLCsquam, OC, OSCAR, PACA, SCLC |
| 113 (DANSRTSQL; listed as Homo sapiens) [compound 113] | CLL | MEL, NHL, NSCLCadeno, NSCLCother, UEC |
| 114 (HNALRILTF; listed as Homo sapiens) [compound 114] | AML | BRCA, NHL, NSCLCother, NSCLCsquam |
| 115 (ELYQRIYAF; listed as Homo sapiens) [compound 115] | AML | HNSCC, NHL, NSCLCadeno, NSCLCother, NSCLCsquam, PRCA, SCLC |
| 116 (TLKIRAEVL; listed as Homo sapiens) [compound 116] | CLL | CCC, HNSCC, MEL, NHL, NSCLCadeno, NSCLCother, NSCLCsquam, OC, OSCAR, PRCA, SCLC |
| 117 (YIKTAKKL; listed as Homo sapiens) [compound 117] | CLL | – |
| 118 (FEKEKKESL; listed as Homo sapiens) [compound 118] | CLL | – |
| 119 (DLRTKEVVF; listed as Homo sapiens) [compound 119] | CLL | GC, NHL |
